# Test results taken from PubChem BioAssay AID1347076 (National Center for Advancing Translational Sciences (NCATS), 2019).
# Hit rate of the full screen: of about 400,000 compounds, about 13,000 (3.2%) were called active. Inconclusive results, whose numbers are uncertain, are shown with a selection of clear calls. Calls come from the whole dose curve; as a rule, active = well fitted cell-killing curve with a large enough effect; inconclusive = small, poorly fitted or top-dose-only effect, or effect the other way; inactive = flat fitted curve, though single readings scatter. Potencies of inconclusive entries are doubtful fits and often do not repeat.
# Experiment: qHTS assay for MDR1-selective chemotherapeutics: Primary screen using the drug-selected MDR subline cells KB-V1; note: nearly all actives have a fitted effect of over 60% in size
# Conditions: KB-V1 MDR cells viability, CellTiter-Glo, 72 h; activity change, negative = cytotoxicity: at 46.1 µM (top of the series)
# How it was run: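 Drug-selected KB-V1 cells, grown in DMEM lacking phenol red with 10% FBS, receive compound titrations; after three days at 37 degrees C, surviving cell ATP is quantified by CellTiter-Glo luminescence and responses normalized and curve-fitted.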
# % is set by controls: 0 for no effect and ±100 for the full control effect; potency is the fitted concentration of half-maximal effect.
Compound,Potency,"activity change, negative = cytotoxicity"
COc1cccc(C(=O)NCC(=O)OCc2cc(=O)n3nc(C)sc3n2)c1,"inconclusive: 18.4 µM [rising, partial curve, poor fit]",
N#Cc1ccc2nc3c(nc2c1)CCCC3,"inconclusive: 20.6 µM [cytotoxic, single point]",
CC1=CC(C)(C)n2c(O)c(N=N)c3c(C)c(C)cc1c32,,inconclusive: 4.77%
Cc1cc(Cl)ccc1OC(C)C(=O)Nc1cnn(CCCC(=O)O)c1 (centres undefined),inactive,
Cc1ccc(NS(=O)(=O)c2cc(-c3n[nH]c(=O)c4ccccc34)ccc2C)cc1,active: 20.6 µM,
C/C(=N\NC(=O)c1cccc(N/N=C(\C)c2cc(O)ccc2O)c1)c1cc(O)ccc1O,"inconclusive: 20.6 µM [cytotoxic, single point]",
OC(c1cc(F)cc(Cl)c1)c1ncc(-c2ccccc2C(F)(F)F)[nH]1 (centres undefined),inactive,
COc1ccc(C)cc1NC(=O)c1ccc(NS(=O)(=O)c2cccs2)cc1,inactive,
CC1Cc2ccccc2N1C(=S)NC(=O)C1(C)CC1(Cl)Cl (centres undefined),"inconclusive: 29.1 µM [cytotoxic, single point]",
CCCCNC(=O)C1=CC(c2ccc3c(c2)OCO3)=NS(=O)(=O)N1C,inactive,
O=C(COc1ccc(F)cc1)Nc1nnc(C2CCCCC2)s1,"inconclusive: 7.31 µM [cytotoxic, partial curve, poor fit]",
O=C(NCCN1CCN(C(=O)c2c(F)cccc2F)CC1)C(=O)Nc1ccc(Cl)cc1,inactive,
CCc1noc(C)c1C(=O)N(C)CC(=O)Nc1ccc(Cl)c(Cl)c1,"inconclusive: 18.4 µM [cytotoxic, single point]",
CCN(CC)C(=S)NC(=O)c1cc(OC)c(OC)c(OC)c1,inactive,
CN=C1SC(CC(=O)Nc2c(C)cccc2C)C(=O)N1/N=C/c1cccs1 (centres undefined),"inconclusive: 25.9 µM [cytotoxic, partial curve, poor fit]",
CCCCCC(=O)Nc1ccc2oc(-c3cncc(Br)c3)nc2c1,"inconclusive: 20.6 µM [cytotoxic, partial curve]",
C=CCn1c(SCc2ccc(Cl)cc2)nc2c1c(=O)[nH]c(=O)n2C,active: 16.4 µM,
CC1(C)N=c2ccc([N+](=O)[O-])c(N)c2=[N+]1[O-],"inconclusive: 18.4 µM [cytotoxic, single point]",
COc1ccc(N(CC(=O)N2CCc3ccccc32)S(=O)(=O)c2c(C)noc2C)cc1,active: 10.3 µM,
Cn1c(=O)c2c(-c3ccc(Cl)cc3)n(Cc3ccccc3)cc2n(C)c1=O,"inconclusive: 11.6 µM [cytotoxic, partial curve]",
Cc1cc(CN(C)Cc2cn(C)nc2-c2ccc(Oc3ccccc3)cc2)on1,active: 9.2 µM,
COc1ccc(N2CCOCC2)c(NC(=O)c2ccc3c(c2)OCO3)c1,inactive,
Nc1cc(N)nc(SCCc2ccccc2)n1,,inconclusive: -12.4%

Compound,Potency,"activity change, negative = cytotoxicity"
Fc1ccccc1-c1ccc(/C=N/Nc2nc3ccccc3[nH]2)o1,"inconclusive: 4.61 µM [cytotoxic, full curve]",
Cc1ccc(CN(C(=O)c2csnn2)C(C(=O)NC2CCCC2)c2ccco2)cc1 (centres undefined),"inconclusive: 6.51 µM [cytotoxic, partial curve]",
CC(=O)Nc1ccc(C2=NNC(=Nc3cccc(S(=O)(=O)N(C)C)c3)SC2)cc1,"inconclusive: 29.1 µM [cytotoxic, single point]",
COc1ccc(-c2cn3cc(Br)cnc3n2)cc1,active: 10.3 µM,
N/C(=N\OC(=O)CCCc1ccccc1)c1ccccn1,"inconclusive: 1.16 µM [rising, full curve]",
CC1CC(C)CN(c2ncnc3c2cnn3C)C1 (centres undefined),"inconclusive: 7.31 µM [cytotoxic, partial curve, poor fit]",
COc1cccc(NC(=O)COC(=O)Cn2c(C)csc2=O)c1,"inconclusive: 29.1 µM [rising, single point]",
CC(C)C[C@H]1CN([C@@H](Cc2ccccc2)CN2CCC[C@@H]2CN2C(=O)C(=O)NC[C@@H]2Cc2ccccc2)C(=O)C(=O)N1CCc1ccccc1,inactive,
CCOC(=O)C1C(=O)OC(C)(C)C1C(CC)C(=O)c1ccccc1 (centres undefined),"inconclusive: 13 µM [cytotoxic, partial curve]",
Cc1ccc(Cc2c(C3CCCCC3)nc3cc(C)c(Br)c(C)n23)cc1,"inconclusive: 29.1 µM [cytotoxic, single point]",
COc1ccccc1C(=O)NC(CCSC)C(=O)NC1CCCCCC1 (centres undefined),"inconclusive: 6.51 µM [cytotoxic, full curve, poor fit]",
CC(C)(C)NC(=O)CSCc1ccc(Br)cc1,inactive,
COc1ccc(S(=O)(=O)N(Cc2cc3cc(C)ccc3[nH]c2=O)CC2CCCO2)cc1 (centres undefined),active: 7.31 µM,
Cc1cccc(/C(N)=N/OC(=O)N2CCOCC2)c1,"inconclusive: 20.6 µM [cytotoxic, single point]",
COc1cccc(OCc2cc(C(=O)N(C)Cc3nc(C)cs3)no2)c1,"inconclusive: 18.4 µM [cytotoxic, single point]",
CC(=O)c1ccc(OCC(=O)N2CCN(S(=O)(=O)c3ccc(Br)s3)CC2)cc1,,inconclusive: -31.8%
CC(=O)Nc1ccc(S(=O)(=O)N2CCN(C3CCCCCCC3)CC2)cc1,"inconclusive: 3.66 µM [cytotoxic, full curve, poor fit]",
O=C(O)c1nn(CC(=O)N2CCN(c3ncc(C(F)(F)F)cc3Cl)CC2)c(=O)c2ccccc12,"inconclusive: 20.6 µM [cytotoxic, single point]",
CN(Cc1ccccc1)C(=O)c1ccc2c(c1)N(Cc1ccccc1F)C(=O)c1ccccc1S2(=O)=O,inactive,
Cc1ccccc1NC(=O)c1nc(S(C)(=O)=O)ncc1Cl,inactive,
O=C(O)c1cccc(Nc2nc3ccccc3nc2NS(=O)(=O)c2ccccc2)c1,inactive,
COc1ccc(-c2cc(C(=O)Nc3c(C)nn(Cc4ccc(Cl)cc4)c3C)no2)cc1,"inconclusive: 16.4 µM [cytotoxic, partial curve]",
CCCCNc1c(-c2cccc(-c3ccc(OC)cc3)c2)nc2cc(C)ccn12,"inconclusive: 29.1 µM [cytotoxic, partial curve, poor fit]",

Compound,Potency,"activity change, negative = cytotoxicity"
O=C(CNC(=O)c1ccccc1F)OCc1csc(-c2ccccc2)n1,"inconclusive: 6.51 µM [rising, partial curve]",
CCc1nc(NC2CCCCC2)c(C#N)c2c1COC(C)(C)C2,"inconclusive: 32.6 µM [cytotoxic, single point]",
NC(=S)N/N=C/c1ccc(-c2cccc([N+](=O)[O-])c2)o1,"inconclusive: 32.6 µM [cytotoxic, single point]",
Cc1ccc(NC2SC(=O)N(Cc3cccc(C(=O)O)c3)C2=O)c(C)c1 (centres undefined),"inconclusive: 23.1 µM [rising, single point]",
Cc1ccc(NC(=O)CCCNC(=O)c2ccc(Cl)cc2)nc1,inactive,
CCOC(=O)N1CCN(CCC(=O)Nc2ccc(Br)cc2)CC1,"inconclusive: 9.2 µM [cytotoxic, partial curve]",
COc1ccc(NC(=O)C2CCCN(S(=O)(=O)c3cccc4nonc34)C2)cc1 (centres undefined),"inconclusive: 16.4 µM [cytotoxic, partial curve, poor fit]",
CCCNCC(O)Cn1c2ccccc2n2c(=O)cc(C)c(C#N)c12 (centres undefined),"inconclusive: 20.6 µM [cytotoxic, single point]",
CN(C(=O)CSc1nc2ccc(NC(=O)COc3ccc(Cl)cc3)cc2s1)c1ccccc1,active: 20.6 µM,
CCOc1ccc(C(=O)NCC(=O)NCCCSc2ccccc2)cc1OCC,"inconclusive: 23.1 µM [cytotoxic, single point]",
CCN1C(=O)[C@H]2[C@@H](c3ccccc3)N[C@]3(CCCN(Cc4ccc(C)cc4)C3=O)[C@H]2C1=O,"inconclusive: 7.31 µM [cytotoxic, partial curve, poor fit]",
COc1cc(NS(C)(=O)=O)c(OC)cc1NC(=O)c1ccccc1,"inconclusive: 29.1 µM [cytotoxic, single point]",
CCN(CC)S(=O)(=O)c1ccc2oc(C(=O)NCc3ccc(C)cc3)c(C)c2c1,"inconclusive: 9.2 µM [cytotoxic, partial curve]",
COC(=O)CSc1nc(-c2ccccc2)cc(-c2ccco2)c1C#N,"inconclusive: 29.1 µM [cytotoxic, partial curve, poor fit]",
Cc1cccc(C)c1NC(=O)Cn1c(=O)n(Cc2ccccc2)c(=O)c2c(C)c(C(=O)N(C)C)sc21,inactive,
c1ccc(OCCCn2nnc(-c3cccnc3)n2)cc1,"inconclusive: 29.1 µM [cytotoxic, single point]",
CC1C(C)N(C(=O)CCl)c2ccccc2N1C(=O)CCl (centres undefined),"inconclusive: 29.1 µM [cytotoxic, single point]",
COC(=O)c1cc(NC(=O)Nc2ccccc2)ccc1Cl,"inconclusive: 18.4 µM [cytotoxic, single point]",
C=CCN1C(=O)/C(=C\c2ccc(C)cc2)N=C1SCC(=O)NCCC,"inconclusive: 29.1 µM [rising, single point]",
CCn1cnc2sc(C(=O)N(Cc3ccc(N(C)C)cc3)Cc3ccco3)c(C)c2c1=O,"inconclusive: 18.4 µM [cytotoxic, partial curve]",
C/C(=N\Nc1nc2ccccc2c(=O)n1O)c1ccco1,active: 14.6 µM,
Cc1nn(-c2ccccc2)c(C)c1C(=O)OCC(=O)c1c(N)n(CC(C)C)c(=O)n(C)c1=O,inactive,
CCCOc1ccc(-c2c(=O)n(OCc3ccc([N+](=O)[O-])cc3)c3ccccc3[n+]2[O-])cc1,"inconclusive: 5.17 µM [cytotoxic, partial curve, poor fit]",
